In article PMC10798966:
Results are given in words; binding and its absence hold for the method and conditions named. In cells and extracts the contact can be indirect. A yes stands for co-enrichment or nearness to the bait. Other partners may have been found. No binding means not detected with the bait. For part of these data: Where a sequence is shown, tags or fusion partners need not be part of it.

Protein sequences, listed by entry. Tags and fused reporters are not part of them. Residues count along the entry.
UniProt P29595, residues 1-76: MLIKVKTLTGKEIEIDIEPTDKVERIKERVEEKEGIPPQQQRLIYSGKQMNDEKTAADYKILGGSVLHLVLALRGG
UniProt P09793, residues 36-223: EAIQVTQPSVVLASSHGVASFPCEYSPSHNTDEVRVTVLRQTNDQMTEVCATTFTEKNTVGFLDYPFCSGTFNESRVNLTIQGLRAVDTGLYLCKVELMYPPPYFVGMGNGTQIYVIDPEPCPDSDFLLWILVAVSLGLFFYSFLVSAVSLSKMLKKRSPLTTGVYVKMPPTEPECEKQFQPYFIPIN
UniProt Q8BHD8: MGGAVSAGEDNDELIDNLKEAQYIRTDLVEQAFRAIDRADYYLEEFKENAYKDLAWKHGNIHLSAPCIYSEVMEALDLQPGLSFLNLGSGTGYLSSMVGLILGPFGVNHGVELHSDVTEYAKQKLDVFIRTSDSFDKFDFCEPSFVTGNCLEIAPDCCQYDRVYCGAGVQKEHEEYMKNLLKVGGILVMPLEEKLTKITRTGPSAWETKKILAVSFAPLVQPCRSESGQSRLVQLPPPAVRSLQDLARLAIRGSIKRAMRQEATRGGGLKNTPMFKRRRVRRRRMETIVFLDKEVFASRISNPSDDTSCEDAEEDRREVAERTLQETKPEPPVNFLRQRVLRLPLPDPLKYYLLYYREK
UniProt P31041, residues 20-218: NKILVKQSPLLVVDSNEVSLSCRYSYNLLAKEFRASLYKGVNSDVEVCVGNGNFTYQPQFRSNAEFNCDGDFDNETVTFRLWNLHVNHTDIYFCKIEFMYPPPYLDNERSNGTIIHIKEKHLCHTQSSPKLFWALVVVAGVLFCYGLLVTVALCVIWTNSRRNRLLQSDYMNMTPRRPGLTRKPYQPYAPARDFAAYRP
UniProt Q9CQW9: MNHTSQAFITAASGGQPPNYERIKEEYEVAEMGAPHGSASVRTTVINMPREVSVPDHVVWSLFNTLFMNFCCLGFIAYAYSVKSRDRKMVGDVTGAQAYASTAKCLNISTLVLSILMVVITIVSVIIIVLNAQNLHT

B1: ASB6, Q91ZU1 1-418 (protein)
chain: MPFLHGFRRIIFEYQPLVDAILGALGIQDLERQEPLDDSASSEESRILVLTELLEQKAHSPFYQEGVSNALLKMAELGLTRAAAVLLQSGANLNFEDPVTYYTALHIAVLRNQPDMVELLVRHGADINRRDRIHESSPLDLASEEPERLPCLQRLLDLGADVNAADKNGKTALLHALASSDGVQIHNTENIRLLLEGGADVKATTKDGDTVFTCIIFLLGETVCGDKEEAPMINRFCFQVTQLLLAHGADPSECPAHESLTHICLKSFKLHFPLLCFLLESGAAYNCSLHGASCWSGFNLVFERLCSHPGCAEDDSHIELLHKAETVLDLMVTSSQRLQLPENLNIHPVGSLAGKIQALHASLRQLESYPPPLKHLCRVSIRLCLRPWPVDTKVKALPLPDRLKWYLLSAHSDTQDTC
B2: Cish, Q62225 1-257 (protein)
chain: MVLCVQGSCPLLAVEQIGRRPLWAQSLELPGPAMQPLPTGAFPEEVTEETPVQAENEPKVLDPEGDLLCIAKTFSYLRESGWYWGSITASEARQHLQKMPEGTFLVRDSTHPSYLFTLSVKTTRGPTNVRIEYADSSFRLDSNCLSRPRILAFPDVVSLVQHYVASCAADTRSDSPDPAPTPALPMSKQDAPSDSVLPIPVATAVHLKLVQPFVRRSSARSLQHLCRLVINRLVADVDCLPLPRRMADYLRQYPFQL
B3: SKAP1 (protein, UniProt Q3UUV5 1-355)
chain: MQAVALPEEICWLLEDTEDFLAEGLQNENLSPGAQDQRAHILRGFQQIKSRYCWDFQPQGGDLGQDGSDDNLSGTHGPPLTSEASFWSDYQDEGIEDILRGAQELDSVIKQGYLEKKSKDHSFFGSEWQKRWCVISRGLFLYYANEKSKQPKGTFLIKGYSVRMAPHLRKDSKKESCFELISQDRRSYEFTASSPAEARDWVDQISFLLKDLSSLTIPFEEEEEEEEEEEKEEEEMYNDVDGFDSPRSGSQCRAMALPEPTEKEEDIYEVLPDDDDLEEDTCGAHRRRVDYADYYQGLWDCHGDQPDELSFQRGDLIRILSKEYNMYGWWVGELNSVIGIVPKDYLTTAFEMEGI
B4: IL2 receptor β subunit (IL2RB) (receptor, UniProt P16297 27-539)
chain: AVKNCSHLECFYNSRANVSCMWSHEEALNVTTCHVHAKSNLRHWNKTCELTLVRQASWACNLILGSFPESQSLTSVDLLDINVVCWEEKGWRRVKTCDFHPFDNLRLVAPHSLQVLHIDTQRCNISWKVSQVSHYIEPYLEFEARRRLLGHSWEDASVLSLKQRQQWLFLEMLIPSTSYEVQVRVKAQRNNTGTWSPWSQPLTFRTRPADPMKEILPMSWLRYLLLVLGCFSGFFSCVYILVKCRYLGPWLKTVLKCHIPDPSEFFSQLSSQHGGDLQKWLSSPVPLSFFSPSGPAPEISPLEVLDGDSKAVQLLLLQKDSAPLPSPSGHSQASCFTNQGYFFFHLPNALEIESCQVYFTYDPCVEEEVEEDGSRLPEGSPHPPLLPLAGEQDDYCAFPPRDDLLLFSPSLSTPNTAYGGSRAPEERSPLSLHEGLPSLASRDLMGLQRPLERMPEGDGEGLSANSSGEQASVPEGNLHGQDQDRGQGPILTLNTDAYLSLQELQAQDSVHLI

Target: T1, CUL5 with a C terminal HA-tag (CUL5-HA) (mouse), Q9D5V5
T1 chain: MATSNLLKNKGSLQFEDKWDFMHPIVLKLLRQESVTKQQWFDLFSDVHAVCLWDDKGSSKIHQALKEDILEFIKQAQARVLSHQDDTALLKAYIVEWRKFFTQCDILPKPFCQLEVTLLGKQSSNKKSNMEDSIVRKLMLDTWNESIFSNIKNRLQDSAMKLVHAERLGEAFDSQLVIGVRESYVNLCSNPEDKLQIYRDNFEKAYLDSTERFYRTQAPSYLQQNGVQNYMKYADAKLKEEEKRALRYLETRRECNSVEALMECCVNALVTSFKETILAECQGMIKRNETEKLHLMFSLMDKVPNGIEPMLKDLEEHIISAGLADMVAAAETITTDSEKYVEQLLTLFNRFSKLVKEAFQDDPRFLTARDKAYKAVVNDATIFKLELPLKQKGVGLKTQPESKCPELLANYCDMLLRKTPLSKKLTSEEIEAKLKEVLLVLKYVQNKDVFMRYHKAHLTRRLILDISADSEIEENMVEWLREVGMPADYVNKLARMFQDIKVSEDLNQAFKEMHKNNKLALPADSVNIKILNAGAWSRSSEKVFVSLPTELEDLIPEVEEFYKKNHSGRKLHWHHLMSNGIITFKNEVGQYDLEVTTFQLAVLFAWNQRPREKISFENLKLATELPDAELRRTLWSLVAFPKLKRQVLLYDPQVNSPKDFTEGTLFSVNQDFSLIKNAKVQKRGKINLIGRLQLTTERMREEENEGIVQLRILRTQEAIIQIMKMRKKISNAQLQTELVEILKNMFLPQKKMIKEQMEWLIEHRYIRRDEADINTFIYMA
Experiment: affinity purification with mass spectrometry; anti-HA IP of CUL5-HA from mouse primary CD8+ T cells stimulated with anti-CD3 plus anti-CD28 for 12 h, 10 µM MG-132 for the last 8 h; Protein G dynabeads; DIA-MS; compared with cells transduced with the empty vector; triplicate
Conditions: remark: other sources report otherwise
For B1, the binding was “no binding”. With B2 the binding was “no binding”.

These molecules were tested against CUL5 with a C terminal HA-tag (CUL5-HA) (mouse) (UniProt Q9D5V5) in the same assay as above. Conditions: not given.
In the case of NEDD8 (from UniProt P29595 1-76), the binding is reported as “binds”. “CTLA4 (from UniProt P09793 36-223) (receptor)” was tested, and the binding was “no binding”. In the case of PCMTD2 (from UniProt Q8BHD8 1-359), the binding is reported as “binds”. In the case of “CD28 (from UniProt P31041 20-218) (receptor)”, the binding is reported as “binds”. In the case of IFITM3 (from UniProt Q9CQW9 1-137), the binding is reported as “binds”. For B3, the binding was “binds”. For B4, the binding was “binds”.
